Several values for one entry are separate records, joined by “and”; a condition that tells them apart may be missing. Equal values may be shown once. The list shows a part of the results. Further columns of the screen follow, without active or inactive calls. For some of these results: Most of these compounds were active or inconclusive in the main read-out, so they are no random draw.
Assays:
PubChem AID 1586 = conditions: yeast two-hybrid polyglutamine protein interaction, reporter readout; measured here: averaged growth delta OD
[1] = selective SMN2 exon splicing luciferase activators – cell-based, SMN2/SMN1 luciferase reporters (AID 1598); conditions: SMN2 vs SMN1 luciferase splicing reporter cells, at 10 µM; SMN1 luciferase ratio: measured here: SMN1 luciferase reporter average; SMN2 luciferase ratio: measured here: SMN2 luciferase reporter average, stronger effect = higher value
[2] = rescue of PC12 cells from polyQ htt toxicity – LDH release (AID 1610); conditions: PC12 mutant huntingtin toxicity, final LDH at 4 uM, stronger effect = lower value

Structure (SMILES) | signal change (36 h minus 0 h) (PubChem AID 1586) | SMN1 luciferase ratio [1] | SMN2 luciferase ratio [1] | normalised LDH release [2]
CC1(C)C2CC[C@]3(C)C(C(=O)C=C4[C@@H]5C[C@@](C)(C(=O)O)CC[C@]5(C)CC[C@]43C)[C@@]2(C)CC[C@@H]1OC(=O)CCC(=O)O (some centres not stated) | 0.0255 | 0.36 | 0.42 | 1.02
O=C(O)C1CCCNC1 (configuration not stated) | 0.0956 | 0.84 | 0.91 | 0.967
CCOC(=O)CCCCCCCCCCCCC1C=CCC1 (configuration not stated) | 0.146 | 0.95 | 1.01 | 0.511
CCN(CC)CCNC(=O)c1cc(S(C)(=O)=O)ccc1OC | 0.066 | 0.91 | 1.01 | 0.984
NCCCCN | 0.0385 | 0.87 | 0.88 | 0.865
COc1ccc2[nH]cc(CCNC(C)=O)c2c1 | 0.135 | 0.92 | 0.84 | 0.997
NCCCC[C@H](N[C@@H](CCc1ccccc1)C(=O)O)C(=O)N1CCC[C@H]1C(=O)O | 0.312 | 0.96 | 0.95 | 0.898
Cc1cccc(N(C)C(=S)Oc2ccc3ccccc3c2)c1 | 0.191 | 0.87 | 0.89 | 0.954
CC(CN(C)C)CN1c2ccccc2CCc2ccccc21 (configuration not stated) | 0.199 | 0.77 | 0.84 | 0.66
CN1CCC[C@@H]1CCO[C@](C)(c1ccccc1)c1ccc(Cl)cc1 | 0.107 | 1.1 | 0.9 | 1.08
CO[C@H]1C[C@H](O[C@H]2[C@H](C)[C@@H](OC3O[C@H](C)C[C@H](N(C)C)[C@H]3O)[C@@H](C)C[C@]3(CO3)C(=O)[C@H](C)[C@@H](O)[C@@H](C)[C@@H](C)OC(=O)[C@@H]2C)O[C@@H](C)[C@@H]1O (some centres not stated) | 0.157 | 0.97 | 0.93 | 0.809
Cc1cc(=O)n(-c2ccccc2)n1C | 0.227 | 0.92 | 0.84 | 1.27
CO/N=C(/C(=O)NC1C(=O)N2C(C(=O)O)=C(COC(N)=O)CSC12)c1ccco1 (configuration not stated) | 0.107 | 0.91 | 0.83 | 1
CC(=O)O[C@H]1C(=O)[C@@]2(C)C([C@H](OC(=O)c3ccccc3)[C@]3(O)C[C@H](OC(=O)[C@H](O)[C@@H](NC(=O)c4ccccc4)c4ccccc4)C(C)=C1C3(C)C)[C@]1(OC(C)=O)CO[C@@H]1C[C@@H]2O (some centres not stated) | 0.0803 | 1.32 | 1.34 | 1.31
CN1C2CC[C@@H]1CC(OC(=O)[C@H](CO)c1ccccc1)C2 (some centres not stated) | 0.134 | 0.9 | 0.97 | 1.05
O=c1cc[nH]c(=S)[nH]1 | 0.0665 | 0.86 | 0.97 | 0.949
COC(=O)[C@H]1[C@H]2C[C@@H]3c4[nH]c5cc(OC)ccc5c4CCN3C[C@H]2C[C@@H](OC(=O)c2cc(OC)c(OC)c(OC)c2)[C@@H]1OC | 0.313 | 0.87 | 0.82 | 0.778
CCOC(=O)c1ccc(N)cc1 | 0.207 | 1.25 | 1.34 | 1.18
C[C@H](CCC(=O)O)[C@H]1CCC2C3C(CC[C@@]21C)[C@@]1(C)CC[C@@H](O)C[C@H]1C[C@H]3O (some centres not stated) | 0.0328 | 0.97 | 0.91 | 0.987
NC(N)=NCCCCN=C(N)N | 0.118 | 0.92 | 0.86 | 0.986
COc1ccc(CN(CCN(C)C)c2ccccn2)cc1 | 0.246 | 0.85 | 0.96 | 0.829
CC(COc1ccccc1)NC(C)[C@H](O)c1ccc(O)cc1 (some centres not stated) | 0.144 | 0.93 | 0.95 | 0.877
CCCC(CCC)C(=O)O | 0.183 | 0.94 | 0.98 | 0.911
CC(C)NCC(O)c1ccc2ccccc2c1 (configuration not stated) | 0.312 | 0.9 | 0.95 | 1.25
OC(CCN1CCCCC1)(c1ccccc1)c1ccccc1 | 0.304 | 0.94 | 0.94 | 1.08

Given as labelled records: part of the list above
CC1(C)C2CC[C@]3(C)C(C(=O)C=C4[C@@H]5C[C@@](C)(C(=O)O)CC[C@]5(C)CC[C@]43C)[C@@]2(C)CC[C@@H]1OC(=O)CCC(=O)O (some centres not stated)
  signal change (36 h minus 0 h) (PubChem AID 1586): 0.0255; SMN1 luciferase ratio [1]: 0.36; SMN2 luciferase ratio [1]: 0.42; normalised LDH release [2]: 1.02
O=C(O)C1CCCNC1 (configuration not stated)
  signal change (36 h minus 0 h) (PubChem AID 1586): 0.0956; SMN1 luciferase ratio [1]: 0.84; SMN2 luciferase ratio [1]: 0.91; normalised LDH release [2]: 0.967
CCOC(=O)CCCCCCCCCCCCC1C=CCC1 (configuration not stated)
  signal change (36 h minus 0 h) (PubChem AID 1586): 0.146; SMN1 luciferase ratio [1]: 0.95; SMN2 luciferase ratio [1]: 1.01; normalised LDH release [2]: 0.511
CCN(CC)CCNC(=O)c1cc(S(C)(=O)=O)ccc1OC
  signal change (36 h minus 0 h) (PubChem AID 1586): 0.066; SMN1 luciferase ratio [1]: 0.91; SMN2 luciferase ratio [1]: 1.01; normalised LDH release [2]: 0.984

Following part.

Structure (SMILES) | signal change (36 h minus 0 h) (PubChem AID 1586) | SMN1 luciferase ratio [1] | SMN2 luciferase ratio [1] | normalised LDH release [2]
CC(=O)Oc1ccc(C(c2ccc(OC(C)=O)cc2)c2ccccn2)cc1 | 0.0911 | 0.62 | 0.78 | 0.816
CS(=O)(=O)c1ccc([C@@H](O)[C@@H](CO)NC(=O)C(Cl)Cl)cc1 | 0.547 | 0.86 | 0.7 | 0.715
CCCn1c(=O)c2[nH]c(C3CCCC3)nc2n(CCC)c1=O | 0.193 | 0.86 | 0.9 | 0.968
C=CCc1ccc(O)c(OC)c1 | 0.136 | 0.87 | 0.86 | 0.776
NC1=NCCN1CC(=O)O | 0.137 | 0.83 | 0.89 | 0.732
C#C[C@]1(OC(C)=O)CCC2C3CCC4=CC(=O)CC[C@@H]4C3CC[C@@]21C (some centres not stated) | -0.0149 | 0.86 | 0.84 | 0.866
Cc1ccc(/C(=C\CN2CCCC2)c2ccccn2)cc1 | 0.128 | 0.89 | 1 | 1.05
COc1ccc(C(=O)c2ccccc2)c(O)c1 | 0.0386 | 0.92 | 0.94 | 1.01
CC/C(=C(\c1ccccc1)c1ccc(OCCN(C)C)cc1)c1ccccc1 | 0.226 | 0.87 | 0.93 | 1.11
NS(=O)(=O)c1cc2c(cc1Cl)NC=NS2(=O)=O | 0.259 | 0.92 | 0.85 | 1.1
N#Cc1ccc2c(c1)N(CCCN1CCC(O)CC1)c1ccccc1S2 | 0.0531 | 0.83 | 0.81 | 0.828
CN1CCN(C(c2ccccc2)c2ccc(Cl)cc2)CC1 (configuration not stated) | 0.19 | 0.87 | 0.99 | 1.24
c1ccc2c(c1)CCCC2C1=NCCN1 (configuration not stated) | 0.068 | 0.93 | 1.02 | 0.712
COc1ccc(/C=C/c2cc(O)cc(O[C@@H]3O[C@H](CO)[C@@H](O)[C@H](O)[C@H]3O)c2)cc1O | 0.376 | 2.39 | 2.97 | 1.06
Cc1cc(CC(=O)O)n(C)c1C(=O)c1ccc(Cl)cc1 | 0.194 | 1.01 | 0.88 | 1.42
NS(=O)(=O)c1cc2c(cc1Cl)NC(C(Cl)Cl)NS2(=O)=O (configuration not stated) | 0.193 | 0.92 | 0.88 | 0.537
N[C@@H](Cc1c[nH]c2ccccc12)C(=O)O | 0.153 | 0.85 | 0.97 | 0.782
CNC(C)[C@@H]1CC[C@@H](N)[C@@H](OC2[C@@H](N)C[C@@H](N)[C@H](OC3OC[C@](C)(O)[C@H](NC)[C@H]3O)[C@H]2O)O1 (some centres not stated) | 0.0718 | 0.89 | 0.91 | 0.793
Oc1cccc(O)c1 | 0.167 | 0.92 | 0.9 | 0.658
OCc1cc2c(cn1)[nH]c1ccccc12 | 0.0885 | 0.94 | 0.83 | 0.935
C[N+]1(C)C2CC[C@H]1CC(OC(=O)C(O)c1ccccc1)C2 (some centres not stated) | 0.223 | 0.94 | 0.92 | 0.872
Nc1ccn(C2O[C@H](CO)[C@@H](O)[C@@H]2O)c(=O)n1 (some centres not stated) | 0.179 | 0.49 | 0.54 | 0.413
O=C(CCBr)N1CCN(C(=O)CCBr)CC1 | 0.118 | 0.87 | 0.86 | 0.712
O=C(O)c1cc(=O)c2ccccc2[nH]1 | 0.0668 | 0.86 | 0.85 | 1.31
CCCCCCCCCCCCCCCCCCOCC(O)CO (configuration not stated) | 0.407 | 0.88 | 0.96 | 0.826

Structure (SMILES) | signal change (36 h minus 0 h) (PubChem AID 1586) | SMN1 luciferase ratio [1] | SMN2 luciferase ratio [1] | normalised LDH release [2]
c1ccc([C@H]2CN3CCSC3=N2)cc1 | 0.288 | 0.93 | 0.91 | 1.23
CCCCC1C(=O)N(c2ccccc2)N(c2ccc(O)cc2)C1=O (configuration not stated) | 0.0612 | 0.96 | 1.07 | 0.599
OC(c1cc(C(F)(F)F)nc2c(C(F)(F)F)cccc12)C1CCCCN1 (configuration not stated) | 0.18 | 0.8 | 0.81 | 1.06
CCCC(C(=O)OCCN(CC)CC)(c1ccccc1)c1ccccc1 | 0.118 | 0.86 | 0.89 | 1.1
CCN(CCCCOC(=O)c1ccc(OC)c(OC)c1)C(C)Cc1ccc(OC)cc1 (configuration not stated) | 0.165 | 0.83 | 0.82 | 0.736
Fc1ccc(C(c2ccccc2)(c2ccccc2F)n2ccnc2)cc1 (configuration not stated) | 0.0961 and 0.256 | 0.84 and 0.91 | 0.88 and 0.92 | 1.06 and 0.892
CC(=O)N[C@@H]1[C@@H](O)[C@H](O)[C@@H](CO)O[C@H]1O | 0.125 | 0.84 | 0.83 | 0.925
CCCCN1CCCCC1C(=O)Nc1c(C)cccc1C (configuration not stated) | 0.0696 | 0.87 | 0.81 | 0.958
NS(=O)(=O)c1cc(C2(O)NC(=O)c3ccccc32)ccc1Cl (configuration not stated) | 0.0898 | 0.91 | 0.93 | 1
Cc1cc(-c2ccccc2)nnc1NCCN1CCOCC1 | 0.0742 | 0.83 | 0.92 | 0.708
O=c1[nH]c(=O)n(C2C[C@@H](O)[C@@H](CO)O2)cc1F (some centres not stated) | 0.173 | 0.44 | 0.54 | 0.724
CCN(CC)CCOC(=O)c1ccc(N)cc1 | 0.0631 | 0.91 | 0.96 | 0.871
CN1CCOC(c2ccccc2)c2ccccc2C1 (configuration not stated) | 0.0554 | 0.85 | 0.86 | 0.77
CN(C)CCN(Cc1ccccc1)c1ccccn1 | 0.234 | 0.81 | 0.91 | 0.175
Cc1cc(C(C)(C)CC(C)(C)C)ccc1OCCOCC[N+](C)(C)Cc1ccccc1 | -0.0018 | 0.34 | 0.44 | 0.702
CC[C@]12CCCN3CCc4c(n(c5ccccc45)[C@](O)(C(=O)OC)C1)[C@@H]32 | 0.184 | 0.9 | 0.82 | 1.08
CCCSc1ccc2nc(NC(=O)OC)[nH]c2c1 | 0.0804 | 1.25 | 1.34 | 1.11
COc1ccccc1OCC(O)CO (configuration not stated) | 0.165 | 0.89 | 0.88 | 0.884
NC(=O)NC(=O)Cc1ccccc1 | 0.0974 | 1.06 | 1.01 | 0.589
C[N+]1(CCCCC[N+]2(C)CCCC2)CCCC1 | 0.0481 | 0.43 | 0.46 | 0.932
Nc1ccc(N=Nc2ccccc2)c(N)n1 | 0.113 | 1.03 | 1.19 | 1.08
CC(=O)NO | 0.508 | 0.97 | 1.07 | 0.75
C[C@@H]1CC2C3CCC4=CC(=O)C=C[C@]4(C)[C@@]3(F)[C@@H](O)C[C@]2(C)[C@@]1(O)C(=O)COP(=O)(O)O (some centres not stated) | 0.0926 | 0.89 | 0.93 | 0.96
